From publication PMC6684615 come the findings set out here.

Protein sequences, listed by entry. Tags and fused reporters are not part of them.
UniProt P29351: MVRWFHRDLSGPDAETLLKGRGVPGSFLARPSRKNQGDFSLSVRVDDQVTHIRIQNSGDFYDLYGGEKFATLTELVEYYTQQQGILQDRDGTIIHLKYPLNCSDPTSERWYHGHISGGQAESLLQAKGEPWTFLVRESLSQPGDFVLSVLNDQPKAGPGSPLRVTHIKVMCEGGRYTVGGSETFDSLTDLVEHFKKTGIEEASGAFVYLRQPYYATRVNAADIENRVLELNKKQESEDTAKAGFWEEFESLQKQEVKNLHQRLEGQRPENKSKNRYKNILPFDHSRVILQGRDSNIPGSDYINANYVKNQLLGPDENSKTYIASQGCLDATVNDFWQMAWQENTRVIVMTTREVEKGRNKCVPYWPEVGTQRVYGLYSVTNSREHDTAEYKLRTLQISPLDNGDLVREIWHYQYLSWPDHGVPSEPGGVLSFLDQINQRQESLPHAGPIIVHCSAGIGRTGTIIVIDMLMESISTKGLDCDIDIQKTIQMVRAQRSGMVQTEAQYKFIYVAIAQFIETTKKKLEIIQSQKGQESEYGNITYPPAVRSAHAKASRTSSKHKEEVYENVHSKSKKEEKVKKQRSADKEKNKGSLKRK

The target of assay [1] is T1, PirB, endogenous in Hepa1c1c-7 cells (mouse (endogenous in Hepa1c1c-7)) (UniProt P97484).
T1 sequence (chain, tyrosine phosphorylation (sites not stated), reduced after Angptl8 treatment): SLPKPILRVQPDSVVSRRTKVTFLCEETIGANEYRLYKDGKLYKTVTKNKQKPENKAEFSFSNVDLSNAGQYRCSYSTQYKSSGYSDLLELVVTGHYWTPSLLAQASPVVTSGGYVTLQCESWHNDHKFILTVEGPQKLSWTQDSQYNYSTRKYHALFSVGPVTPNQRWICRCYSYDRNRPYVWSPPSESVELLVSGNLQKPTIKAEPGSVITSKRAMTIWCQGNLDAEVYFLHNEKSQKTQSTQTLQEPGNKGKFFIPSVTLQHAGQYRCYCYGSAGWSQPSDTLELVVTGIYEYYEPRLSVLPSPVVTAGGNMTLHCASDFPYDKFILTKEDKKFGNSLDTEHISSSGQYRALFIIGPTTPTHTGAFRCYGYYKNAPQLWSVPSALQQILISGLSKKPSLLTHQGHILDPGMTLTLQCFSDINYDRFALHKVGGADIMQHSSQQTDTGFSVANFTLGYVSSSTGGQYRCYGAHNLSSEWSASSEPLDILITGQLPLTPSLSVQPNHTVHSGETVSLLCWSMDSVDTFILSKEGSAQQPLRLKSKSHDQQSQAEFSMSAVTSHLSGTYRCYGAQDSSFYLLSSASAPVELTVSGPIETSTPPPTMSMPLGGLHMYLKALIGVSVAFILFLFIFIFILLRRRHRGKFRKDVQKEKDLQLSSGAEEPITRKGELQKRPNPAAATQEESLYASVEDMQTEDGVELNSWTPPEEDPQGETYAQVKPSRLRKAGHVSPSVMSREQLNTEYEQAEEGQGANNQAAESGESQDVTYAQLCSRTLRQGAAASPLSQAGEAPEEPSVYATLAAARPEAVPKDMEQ
Kind of assay: co-IP; Hepa1c1c-7 cells stimulated with 40 nM Angptl8 for 0, 5 and 10 min; precipitated with anti-PirB antibody; blots for SHP-1, SHP-2 and phospho-tyrosine.

In assay [2] the target is T2, PirB (paired immunoglobulin-like receptor B), endogenous in mouse liver (mouse (endogenous in mouse liver)) (UniProt P97484).
T2 sequence: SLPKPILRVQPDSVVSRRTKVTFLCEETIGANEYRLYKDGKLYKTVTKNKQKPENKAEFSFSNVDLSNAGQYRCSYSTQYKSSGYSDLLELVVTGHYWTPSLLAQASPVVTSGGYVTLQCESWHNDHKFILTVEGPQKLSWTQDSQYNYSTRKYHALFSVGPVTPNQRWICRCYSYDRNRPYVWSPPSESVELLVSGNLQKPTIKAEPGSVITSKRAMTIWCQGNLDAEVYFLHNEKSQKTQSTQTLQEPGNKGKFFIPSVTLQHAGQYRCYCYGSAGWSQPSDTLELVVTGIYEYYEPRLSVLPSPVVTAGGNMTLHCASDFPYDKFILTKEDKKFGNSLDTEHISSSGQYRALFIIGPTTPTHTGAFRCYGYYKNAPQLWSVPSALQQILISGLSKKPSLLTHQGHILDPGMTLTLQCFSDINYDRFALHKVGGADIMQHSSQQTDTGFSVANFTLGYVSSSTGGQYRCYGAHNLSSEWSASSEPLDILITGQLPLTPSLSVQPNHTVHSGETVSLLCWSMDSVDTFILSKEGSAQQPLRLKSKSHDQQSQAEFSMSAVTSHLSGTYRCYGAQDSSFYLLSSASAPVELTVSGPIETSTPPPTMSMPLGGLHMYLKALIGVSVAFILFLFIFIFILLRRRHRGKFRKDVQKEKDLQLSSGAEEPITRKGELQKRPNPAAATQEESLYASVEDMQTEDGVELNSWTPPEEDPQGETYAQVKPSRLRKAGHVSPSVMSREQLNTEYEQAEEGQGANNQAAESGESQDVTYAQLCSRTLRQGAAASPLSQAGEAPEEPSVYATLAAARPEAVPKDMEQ
Kind of assay: co-IP; mouse liver lysates in RIPA buffer; 50 ug protein lysate with Protein-A/G agarose beads and 2 ug anti-Angptl8 or anti-PirB antibody overnight; Western blot. Background: Immunoblotting shows a protein as a band on a membrane.

Assay [3] deals with T3, mouse PirB, from a transfected plasmid (PirB CDS domain) (mouse) (UniProt P97484).
T3 sequence: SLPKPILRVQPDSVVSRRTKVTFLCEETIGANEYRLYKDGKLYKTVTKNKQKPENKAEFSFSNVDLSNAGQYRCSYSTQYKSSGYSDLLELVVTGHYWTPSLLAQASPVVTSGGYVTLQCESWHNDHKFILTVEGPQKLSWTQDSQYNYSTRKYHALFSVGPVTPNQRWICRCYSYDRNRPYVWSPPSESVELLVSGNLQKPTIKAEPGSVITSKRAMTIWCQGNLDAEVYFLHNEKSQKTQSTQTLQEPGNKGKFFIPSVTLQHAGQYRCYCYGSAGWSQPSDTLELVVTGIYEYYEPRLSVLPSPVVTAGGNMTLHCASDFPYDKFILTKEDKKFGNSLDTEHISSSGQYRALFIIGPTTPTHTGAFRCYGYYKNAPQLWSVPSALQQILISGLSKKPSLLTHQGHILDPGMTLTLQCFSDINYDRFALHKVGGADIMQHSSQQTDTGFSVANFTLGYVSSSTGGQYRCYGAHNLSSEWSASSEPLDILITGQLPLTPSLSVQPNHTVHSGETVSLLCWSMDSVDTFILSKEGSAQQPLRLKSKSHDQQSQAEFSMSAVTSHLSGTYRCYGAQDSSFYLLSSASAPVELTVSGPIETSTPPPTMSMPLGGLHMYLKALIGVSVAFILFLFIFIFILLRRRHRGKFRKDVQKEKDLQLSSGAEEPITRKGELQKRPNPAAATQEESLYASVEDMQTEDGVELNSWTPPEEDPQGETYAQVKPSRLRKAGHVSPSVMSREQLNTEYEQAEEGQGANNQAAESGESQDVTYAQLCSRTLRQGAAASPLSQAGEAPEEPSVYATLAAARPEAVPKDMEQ
Put plainly: co-IP; Hepa1c1c-7 cells cotransfected with plasmids encoding mouse Angptl8 and PirB; lysed in RIPA buffer; Protein-A/G agarose beads with anti-Angptl8 or anti-PirB antibody; Western blot.

Results are given in words; binding and its absence hold for the method and conditions named. In cells and extracts the contact can be indirect. Some entries that bind do so weakly or less than the wild type.

As for “SHP-1, endogenous in Hepa1c1c-7 cells (from UniProt P29351 1-595) (enzyme)”, the binding result in assay [1] is reported as “binds”.

B1: Angptl8 (angiopoietin-like protein 8), endogenous in mouse liver (ligand, UniProt Q8R1L8 16-198)
chain: VRPAPVAPLGGPEPAQYEELTLLFHGALQLGQALNGVYRATEARLTEAGHSLGLYDRALEFLGTEVRQGQDATQELRTSLSEIQVEEDALHLRAEATARSLGEVARAQQALRDTVRRLQVQLRGAWLGQAHQEFETLKARADKQSHLLWALTGHVQRQQREMAEQQQWLRQIQQRLHTAALPA
Consider B1, for which the binding entry in assay [2] is recorded as “binds”.

B2: mouse full-length Angptl8, from a transfected plasmid (ligand, UniProt Q8R1L8 16-198)
chain: VRPAPVAPLGGPEPAQYEELTLLFHGALQLGQALNGVYRATEARLTEAGHSLGLYDRALEFLGTEVRQGQDATQELRTSLSEIQVEEDALHLRAEATARSLGEVARAQQALRDTVRRLQVQLRGAWLGQAHQEFETLKARADKQSHLLWALTGHVQRQQREMAEQQQWLRQIQQRLHTAALPA
For B2, in assay [3], the binding result was “binds”.
